Our source for the difficulty met values is patent US5648336A (University of Colorado, priority 1994, dated 1997).

This series is described as follows: general procedure: Boc solid-phase peptide synthesis; BOP (HATU for hindered Boc-MPIV). The settings on record: whole synthesis.

With “DArg-Arg-Pro-Hyp-Gly-Iglb-Ser-DIglb-M PIV-Arg”, the difficulty met result was “the Boc-MPIV failed to couple to the Arg-resin when activated by BOP”.
